PubChem BioAssay AID686938 | Drosophila RNAi Screening Center | 2013
Purpose: 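Fly genes required for calcium entry once internal stores are emptied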 (primary screen). Cells: Drosophila S2R+ cells. Reagent: long dsRNA against Drosophila genes, about 0.25 µg dsRNA per well, roughly 10,000 cells. Timing: 5 days of knock-down before the calcium assay. Challenge: thapsigargin (SERCA pump blocker) to empty calcium stores; entry signal taken 4 min after adding it. Detection: 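Per-well fluo-4 fluorescence in two replicates, unnormalised, measured in resting cells and 4 min after store depletion by the SERCA blocker thapsigargin; ratio of the two present in few wells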. Reading the numbers: calcium entry signal: higher = stronger calcium signal after store depletion; entry to resting ratio: higher = more calcium entry relative to resting level; resting calcium signal: higher = higher resting calcium signal. Hit rule: 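Hit if the duplicate-averaged plate z-score for entry over resting signal is under −3; wells with weak total dye signal (Fmax z < −2) or more than 5 off-targets removed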. Calls: active = strongly reduced calcium entry; inactive = no strong reduction.
The deposit covers about 23,000 reagents; below is an unselected part of those that have a named target and a result. Over the whole deposit, 75 (0.33%) got an active call. 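Raw plate signals without normalisation; calls rest on plate z-scores that were not deposited; ratio present for only 364 wells.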 Names joined by + are all predicted targets of the reagent. Not stated in the record: the dose of the treatment.

| predicted target | DRSC id | calcium entry signal, replicate 1 (fluorescence units) | calcium entry signal, replicate 2 (fluorescence units) | entry to resting ratio | resting calcium signal, replicate 1 (fluorescence units) | resting calcium signal, replicate 2 (fluorescence units) | outcome |
| --- | --- | --- | --- | --- | --- | --- | --- |
| gcl (GeneID 35864) | DRSC07623 | 4.41e7 | 3.52e7 | – | 1.81e7 | 1.63e7 | inactive |
| CG43174 (retired record) + CG43173 (retired record) | DRSC09517 | 3.36e7 | 3.91e7 | – | 1.60e7 | 1.92e7 | inactive |
| eIF3f2 (GeneID 35547) | DRSC04903 | 3.87e7 | 4.33e7 | – | 1.82e7 | 1.97e7 | inactive |
| Ciao1 (GeneID 36655) | DRSC06170 | 4.22e7 | 4.05e7 | – | 1.84e7 | 1.93e7 | inactive |
| CG13070 (GeneID 39782) | DRSC09953 | 3.60e7 | 4.67e7 | – | 1.75e7 | 1.88e7 | inactive |
| CG15800 (GeneID 37763) | DRSC04271 | 4.20e7 | 4.28e7 | – | 1.98e7 | 2.16e7 | inactive |
| CG17717 (GeneID 31592) | DRSC18130 | 3.04e7 | 3.77e7 | – | 1.34e7 | 1.79e7 | inactive |
| Ddx1 (GeneID 40457) | DRSC11862 | 3.40e7 | 4.10e7 | – | 1.62e7 | 2.73e7 | inactive |
| Arl8 (GeneID 40961) | DRSC16334 | 5.08e7 | 3.87e7 | – | 2.44e7 | 2.00e7 | inactive |
| RpL32 (GeneID 43573) | DRSC16835 | 1.39e7 | 1.45e7 | – | 1.01e7 | 1.15e7 | inactive |
| Amt (GeneID 41841) | DRSC16055 | 3.72e7 | 4.44e7 | – | 1.83e7 | 7.35e7 | inactive |
| MFS18 (GeneID 33650) | DRSC00452 | 1.08e8 | – | – | 2.68e7 | – | inactive |
| RpS10a (GeneID 43321) | DRSC14161 | 4.07e7 | 4.89e7 | – | 2.00e7 | 2.22e7 | inactive |
| Dnai2 (GeneID 39318) | DRSC10575 | 2.56e7 | 3.48e7 | – | 1.31e7 | 1.55e7 | inactive |
| CG32816 (GeneID 318225) | DRSC17337 | 5.56e7 | 3.75e7 | – | 3.07e7 | 1.79e7 | inactive |
| Hgsnat (GeneID 31423) | DRSC18405 | 2.72e7 | 2.13e7 | – | 1.11e7 | 1.02e7 | inactive |
| Nse1 (GeneID 33938) | DRSC02147 | 3.27e7 | – | – | 1.55e7 | – | inactive |
| sqz (GeneID 42300) | DRSC16980 | 3.89e7 | 3.74e7 | – | 4.58e7 | 1.74e7 | inactive |
| yellow-e2 (GeneID 41652) | DRSC15169 | 3.96e7 | 6.49e7 | – | 1.89e7 | 8.16e7 | inactive |
| rho-7 (GeneID 36281) | DRSC07304 | 3.12e7 | 3.59e7 | – | 1.76e7 | 1.63e7 | inactive |
| CG13117 (GeneID 34289) | DRSC02215 | 4.34e7 | 5.25e7 | – | 2.11e7 | 2.22e7 | inactive |
| Ir8a (GeneID 31867) | DRSC17817 | 3.20e7 | 3.40e7 | – | 1.58e7 | 1.66e7 | inactive |
| Ir8a (GeneID 31867) | DRSC17869 | 3.07e7 | 3.30e7 | – | 1.49e7 | 1.49e7 | inactive |
| sand (GeneID 35777) | DRSC07245 | 3.05e7 | 4.01e7 | – | 1.53e7 | 1.97e7 | inactive |
| CG10359 (GeneID 38434) | DRSC08156 | 4.67e7 | 3.66e7 | – | 2.87e7 | 1.61e7 | inactive |
| Rtnl2 (GeneID 40903) | DRSC12609 | 3.95e7 | 3.08e7 | – | 1.97e7 | 1.51e7 | inactive |
| Rtnl2 (GeneID 40903) | DRSC21655 | 3.97e7 | 4.26e7 | – | 2.34e7 | 2.06e7 | inactive |
| blo (GeneID 35866) | DRSC05937 | 5.51e7 | 4.29e7 | – | 2.47e7 | 2.01e7 | inactive |
| CG6044 (GeneID 37558) | DRSC04522 | 2.28e7 | 2.90e7 | – | 1.21e7 | 1.34e7 | inactive |
| CG13924 (GeneID 38247) | DRSC08393 | 3.85e7 | 4.02e7 | – | 1.97e7 | 1.76e7 | inactive |
| Gli (GeneID 34927) | DRSC03332 | 4.68e7 | 3.24e7 | – | 2.06e7 | 1.57e7 | inactive |
| CG17217 (GeneID 34644) | DRSC02592 | 3.73e7 | 2.29e7 | – | 1.76e7 | 1.17e7 | inactive |
| CG42299 + CG42300 | DRSC19680 | 2.52e7 | 3.51e7 | – | 1.38e7 | 1.62e7 | inactive |
| CG42299 + CG42300 | DRSC19815 | 2.95e7 | 3.55e7 | – | 1.51e7 | 1.61e7 | inactive |
| CG18231 (GeneID 40026) | DRSC10307 | 3.44e7 | 5.96e7 | – | 1.82e7 | 2.45e7 | inactive |
| CG42374 + Mettl5 | DRSC11085 | 3.94e7 | 4.65e7 | – | 1.87e7 | 2.93e7 | inactive |
| Tengl1 (GeneID 318883) | DRSC00481 | 3.06e7 | 3.55e7 | – | 1.51e7 | 1.76e7 | inactive |
| pyd (GeneID 41062) | DRSC12712 | 3.25e7 | 4.36e7 | – | 1.51e7 | 2.32e7 | inactive |
| pyd (GeneID 41062) | DRSC14387 | 3.18e7 | 3.46e7 | – | 1.38e7 | 1.63e7 | inactive |
| pyd (GeneID 41062) | DRSC14445 | 4.81e7 | 4.13e7 | – | 2.45e7 | 2.01e7 | inactive |
| pyd (GeneID 41062) | DRSC14509 | 4.73e7 | 3.99e7 | – | 2.50e7 | 1.94e7 | inactive |
| pyd (GeneID 41062) | DRSC16547 | 3.24e7 | 3.26e7 | – | 1.46e7 | 1.54e7 | inactive |
| pyd (GeneID 41062) | DRSC16548 | 4.81e7 | 4.65e7 | – | 2.48e7 | 2.06e7 | inactive |
| pyd (GeneID 41062) | DRSC17041 | 4.78e7 | 4.50e7 | – | 2.28e7 | 1.99e7 | inactive |
| pyd (GeneID 41062) | DRSC21523 | 3.54e7 | 3.24e7 | – | 2.00e7 | 1.47e7 | inactive |
| pyd (GeneID 41062) | DRSC23116 | 3.89e7 | 3.53e7 | – | 1.83e7 | 1.58e7 | inactive |
| CG42272 (GeneID 318020) | DRSC08766 | 4.41e7 | 4.98e7 | – | 2.52e7 | 2.20e7 | inactive |
| CG42272 (GeneID 318020) | DRSC22502 | 5.09e7 | 3.04e7 | – | 2.67e7 | 1.68e7 | inactive |
| Cyp6a19 (GeneID 36662) | DRSC07379 | 4.25e7 | 3.78e7 | – | 1.83e7 | 1.92e7 | inactive |
| CG13539 (GeneID 37680) | DRSC04181 | 2.34e7 | 2.71e7 | – | 1.43e7 | 1.27e7 | inactive |
| Or43a (GeneID 35644) | DRSC07485 | 4.25e7 | 4.18e7 | – | 1.94e7 | 1.86e7 | inactive |
| CG11159 (GeneID 37341) | DRSC06050 | 2.67e7 | 2.67e7 | – | 1.47e7 | 1.24e7 | inactive |
| IFT20 + CG10395 | DRSC22660 | 3.77e7 | 4.27e7 | – | 1.97e7 | 1.78e7 | inactive |
| tbrd-1 (GeneID 42823) | DRSC14601 | 4.90e7 | 5.74e7 | – | 2.28e7 | 2.23e7 | inactive |
| CG12617 (GeneID 50470) | DRSC02176 | 3.75e7 | 4.28e7 | – | 1.97e7 | 1.91e7 | inactive |
| Z600 (GeneID 39673) | DRSC11317 | 3.42e7 | 5.36e7 | – | 1.77e7 | 2.09e7 | inactive |
| O-fut2 (GeneID 31098) | DRSC18608 | 2.16e7 | 2.43e7 | – | 1.09e7 | 1.35e7 | inactive |
| ckd (GeneID 38402) | DRSC08418 | 2.49e7 | 2.81e7 | – | 1.29e7 | 1.33e7 | inactive |
| SF1 (GeneID 43912) | DRSC16844 | 2.72e7 | 3.17e7 | – | 1.44e7 | 5.31e7 | inactive |
| Spn75F (GeneID 317912) | DRSC09589 | 3.08e7 | 2.94e7 | – | 1.40e7 | 1.47e7 | inactive |
| CG15120 (GeneID 37248) | DRSC06542 | 4.94e7 | 6.04e7 | – | 1.97e7 | 2.76e7 | inactive |
| Polr2I (GeneID 41741) | DRSC16832 | 9.45e6 | 1.69e7 | – | 6.97e6 | 4.81e7 | inactive |
| CG15642 (GeneID 32476) | DRSC19678 | 2.63e7 | 2.87e7 | – | 1.43e7 | 1.38e7 | inactive |
| CG14647 (GeneID 40558) | DRSC12233 | 3.61e7 | 4.22e7 | – | 1.77e7 | 2.82e7 | inactive |
| CG14647 (GeneID 40558) | DRSC22497 | 4.60e7 | 4.09e7 | – | 2.84e7 | 1.91e7 | inactive |
| ftz-f1 (GeneID 40045) | DRSC11347 | 2.56e7 | 5.07e7 | – | 1.45e7 | 1.91e7 | inactive |
| CG14803 (GeneID 31142) | DRSC18556 | 6.75e7 | 5.78e7 | 2.2 | 3.04e7 | 2.23e7 | inactive |
| kek2 (GeneID 34582) | DRSC03552 | 3.96e7 | 4.61e7 | – | 1.83e7 | 1.91e7 | inactive |
| CG33474 (GeneID 2768725) | DRSC05218 | 5.46e7 | 3.25e7 | – | 3.30e7 | 1.31e7 | inactive |
| CR1075 (GeneID 12798037) | DRSC12144 | 4.89e7 | 4.13e7 | – | 2.33e7 | 2.06e7 | inactive |
| lncRNA:Hsromega (GeneID 3772547) | DRSC22875 | 5.13e7 | 3.37e7 | – | 2.32e7 | 1.50e7 | inactive |
| grau (GeneID 45871) | DRSC04691 | 4.55e7 | 5.72e7 | – | 2.01e7 | 2.10e7 | inactive |
| CG13170 (GeneID 36325) | DRSC06298 | 2.45e7 | 3.44e7 | – | 1.34e7 | 1.62e7 | inactive |
| CG8745 (GeneID 39530) | DRSC11033 | 2.65e7 | 3.70e7 | – | 1.18e7 | 2.50e7 | inactive |
| CG8745 (GeneID 39530) | DRSC11034 | 3.52e7 | 3.69e7 | – | 1.87e7 | 1.68e7 | inactive |
| CG8745 (GeneID 39530) | DRSC22741 | 4.36e7 | 3.33e7 | – | 2.41e7 | 1.71e7 | inactive |

7 entries from above in another layout:
{"predicted target": "pyd (GeneID 41062)", "DRSC id": "DRSC16547", "calcium entry signal, replicate 1 (fluorescence units)": 3.24e7, "calcium entry signal, replicate 2 (fluorescence units)": 3.26e7, "resting calcium signal, replicate 1 (fluorescence units)": 1.46e7, "resting calcium signal, replicate 2 (fluorescence units)": 1.54e7, "outcome": "inactive"}
{"predicted target": "pyd (GeneID 41062)", "DRSC id": "DRSC16548", "calcium entry signal, replicate 1 (fluorescence units)": 4.81e7, "calcium entry signal, replicate 2 (fluorescence units)": 4.65e7, "resting calcium signal, replicate 1 (fluorescence units)": 2.48e7, "resting calcium signal, replicate 2 (fluorescence units)": 2.06e7, "outcome": "inactive"}
{"predicted target": "pyd (GeneID 41062)", "DRSC id": "DRSC17041", "calcium entry signal, replicate 1 (fluorescence units)": 4.78e7, "calcium entry signal, replicate 2 (fluorescence units)": 4.50e7, "resting calcium signal, replicate 1 (fluorescence units)": 2.28e7, "resting calcium signal, replicate 2 (fluorescence units)": 1.99e7, "outcome": "inactive"}
{"predicted target": "pyd (GeneID 41062)", "DRSC id": "DRSC21523", "calcium entry signal, replicate 1 (fluorescence units)": 3.54e7, "calcium entry signal, replicate 2 (fluorescence units)": 3.24e7, "resting calcium signal, replicate 1 (fluorescence units)": 2.00e7, "resting calcium signal, replicate 2 (fluorescence units)": 1.47e7, "outcome": "inactive"}
{"predicted target": "pyd (GeneID 41062)", "DRSC id": "DRSC23116", "calcium entry signal, replicate 1 (fluorescence units)": 3.89e7, "calcium entry signal, replicate 2 (fluorescence units)": 3.53e7, "resting calcium signal, replicate 1 (fluorescence units)": 1.83e7, "resting calcium signal, replicate 2 (fluorescence units)": 1.58e7, "outcome": "inactive"}
{"predicted target": "CG42272 (GeneID 318020)", "DRSC id": "DRSC08766", "calcium entry signal, replicate 1 (fluorescence units)": 4.41e7, "calcium entry signal, replicate 2 (fluorescence units)": 4.98e7, "resting calcium signal, replicate 1 (fluorescence units)": 2.52e7, "resting calcium signal, replicate 2 (fluorescence units)": 2.20e7, "outcome": "inactive"}
{"predicted target": "CG42272 (GeneID 318020)", "DRSC id": "DRSC22502", "calcium entry signal, replicate 1 (fluorescence units)": 5.09e7, "calcium entry signal, replicate 2 (fluorescence units)": 3.04e7, "resting calcium signal, replicate 1 (fluorescence units)": 2.67e7, "resting calcium signal, replicate 2 (fluorescence units)": 1.68e7, "outcome": "inactive"}
